This note sets out measurements from publication PMC7199855, “GRAF2, WDR44, and MICAL1 mediate Rab8/10/11–dependent export of E-cadherin, MMP14, and CFTR ΔF508” (The Journal of Cell Biology, 2020).

Sequences of proteins named here, by UniProt entry; tags and fusion partners are left off. A change or cut given only in a name is not applied to a line headed by its entry.
UniProt P62491: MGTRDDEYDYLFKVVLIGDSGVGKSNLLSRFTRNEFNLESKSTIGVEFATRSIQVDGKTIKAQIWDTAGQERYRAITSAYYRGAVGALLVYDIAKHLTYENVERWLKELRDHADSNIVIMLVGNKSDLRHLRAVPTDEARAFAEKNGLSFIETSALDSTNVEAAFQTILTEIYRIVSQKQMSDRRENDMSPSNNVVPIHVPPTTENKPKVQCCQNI
UniProt P61026: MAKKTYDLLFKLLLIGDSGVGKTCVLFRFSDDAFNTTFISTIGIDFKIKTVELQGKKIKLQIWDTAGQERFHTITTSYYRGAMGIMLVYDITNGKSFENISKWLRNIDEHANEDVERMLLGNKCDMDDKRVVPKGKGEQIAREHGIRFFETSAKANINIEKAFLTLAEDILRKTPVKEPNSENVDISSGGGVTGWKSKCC
UniProt Q92930: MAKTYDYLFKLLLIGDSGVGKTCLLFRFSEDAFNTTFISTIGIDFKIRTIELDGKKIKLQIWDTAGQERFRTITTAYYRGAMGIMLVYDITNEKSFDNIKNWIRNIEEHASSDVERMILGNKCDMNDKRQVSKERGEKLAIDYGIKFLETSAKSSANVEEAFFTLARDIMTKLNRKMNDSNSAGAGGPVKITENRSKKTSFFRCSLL
UniProt P61007: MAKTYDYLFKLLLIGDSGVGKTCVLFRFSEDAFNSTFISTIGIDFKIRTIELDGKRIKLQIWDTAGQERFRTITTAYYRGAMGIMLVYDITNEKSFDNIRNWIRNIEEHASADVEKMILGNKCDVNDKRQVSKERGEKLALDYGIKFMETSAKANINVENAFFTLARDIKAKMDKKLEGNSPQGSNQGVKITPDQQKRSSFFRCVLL
UniProt O95292: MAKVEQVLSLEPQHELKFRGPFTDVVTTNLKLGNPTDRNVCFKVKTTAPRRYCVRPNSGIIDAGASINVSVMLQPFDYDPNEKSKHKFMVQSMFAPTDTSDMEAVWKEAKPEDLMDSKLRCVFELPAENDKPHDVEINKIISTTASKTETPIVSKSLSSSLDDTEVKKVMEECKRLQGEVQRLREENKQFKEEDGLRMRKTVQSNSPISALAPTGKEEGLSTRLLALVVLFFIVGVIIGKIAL

Results are given in words; binding and its absence hold for the method and conditions named. For some of these results: Binding seen in cells or lysates may run through a third protein. Some binding calls cover weakened binding; strength is not graded here. Where a sequence is shown, tags or fusion partners need not be part of it.

For one experiment, the target named is GFP-Rab11a Q70L (human) (UniProt P62491). Kind of experiment: co-IP; transfected 293T, IP with α-GFP and Protein G Sepharose; 20 mM Hepes pH 7.4, 150 mM NaCl, 2 mM EDTA, 1% IGEPAL CA-630; Western blot. (In general: Immunoblotting shows a protein as a band on a membrane.)
The target of another experiment is GFP-Rab10 (human) (UniProt P61026). Described as above.
For another experiment, the target named is GFP-Rab8b (human) (UniProt Q92930). Described as above.
A further experiment deals with GFP-Rab11a (human) (UniProt P62491). Described as above.
Another experiment addresses T1, GFP-VAPA DD (human) (UniProt Q9P0L0).
T1 sequence: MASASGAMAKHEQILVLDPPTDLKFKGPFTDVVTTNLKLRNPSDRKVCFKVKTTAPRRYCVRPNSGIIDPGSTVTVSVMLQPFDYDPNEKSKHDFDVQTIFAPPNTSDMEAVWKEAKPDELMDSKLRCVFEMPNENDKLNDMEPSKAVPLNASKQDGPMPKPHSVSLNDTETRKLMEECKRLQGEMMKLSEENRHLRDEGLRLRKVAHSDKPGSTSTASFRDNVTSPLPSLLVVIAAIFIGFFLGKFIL
The experiment is described as above.

A further experiment concerns the target T2, GFP-VAPA (human) (UniProt Q9P0L0).
T2 sequence: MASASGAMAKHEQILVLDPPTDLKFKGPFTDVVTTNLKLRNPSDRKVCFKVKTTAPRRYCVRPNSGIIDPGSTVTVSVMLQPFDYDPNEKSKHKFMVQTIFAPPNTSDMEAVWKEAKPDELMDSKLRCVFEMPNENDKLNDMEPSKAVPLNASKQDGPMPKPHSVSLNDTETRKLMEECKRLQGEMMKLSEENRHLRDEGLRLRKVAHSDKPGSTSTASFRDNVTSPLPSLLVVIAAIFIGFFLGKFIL
Described as above.

A further experiment concerns the target GFP-Rab8a (canine) (UniProt P61007). Described as above.
Another experiment has as its target T3, GRAF2-GFP (human) (UniProt A1A4S6).
T3 sequence: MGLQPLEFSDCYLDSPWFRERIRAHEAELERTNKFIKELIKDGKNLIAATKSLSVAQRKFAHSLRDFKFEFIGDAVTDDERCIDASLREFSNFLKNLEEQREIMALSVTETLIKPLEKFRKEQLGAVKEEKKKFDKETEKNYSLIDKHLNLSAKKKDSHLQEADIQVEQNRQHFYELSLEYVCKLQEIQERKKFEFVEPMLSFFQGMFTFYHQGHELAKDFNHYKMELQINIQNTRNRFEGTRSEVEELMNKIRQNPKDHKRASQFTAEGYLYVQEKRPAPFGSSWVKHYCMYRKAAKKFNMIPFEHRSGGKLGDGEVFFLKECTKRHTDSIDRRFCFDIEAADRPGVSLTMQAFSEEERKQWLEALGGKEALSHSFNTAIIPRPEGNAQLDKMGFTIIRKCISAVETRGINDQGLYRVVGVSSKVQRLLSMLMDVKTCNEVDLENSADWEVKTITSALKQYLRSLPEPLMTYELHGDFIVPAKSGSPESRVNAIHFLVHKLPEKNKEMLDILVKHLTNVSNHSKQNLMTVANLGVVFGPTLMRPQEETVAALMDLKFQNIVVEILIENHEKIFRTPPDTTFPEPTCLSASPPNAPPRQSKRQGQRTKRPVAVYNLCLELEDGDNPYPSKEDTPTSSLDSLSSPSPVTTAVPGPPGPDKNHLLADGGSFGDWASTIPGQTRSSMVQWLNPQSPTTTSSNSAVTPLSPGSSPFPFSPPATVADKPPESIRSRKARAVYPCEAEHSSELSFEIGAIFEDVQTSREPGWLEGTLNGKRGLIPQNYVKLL
Described as above.

Another experiment has as its target GFP-Rab11a S25N (human) (UniProt P62491). Described as above.
For a further experiment, the target named is T4, GRAF1b-GFP (human) (UniProt Q9UNA1).
T4 sequence: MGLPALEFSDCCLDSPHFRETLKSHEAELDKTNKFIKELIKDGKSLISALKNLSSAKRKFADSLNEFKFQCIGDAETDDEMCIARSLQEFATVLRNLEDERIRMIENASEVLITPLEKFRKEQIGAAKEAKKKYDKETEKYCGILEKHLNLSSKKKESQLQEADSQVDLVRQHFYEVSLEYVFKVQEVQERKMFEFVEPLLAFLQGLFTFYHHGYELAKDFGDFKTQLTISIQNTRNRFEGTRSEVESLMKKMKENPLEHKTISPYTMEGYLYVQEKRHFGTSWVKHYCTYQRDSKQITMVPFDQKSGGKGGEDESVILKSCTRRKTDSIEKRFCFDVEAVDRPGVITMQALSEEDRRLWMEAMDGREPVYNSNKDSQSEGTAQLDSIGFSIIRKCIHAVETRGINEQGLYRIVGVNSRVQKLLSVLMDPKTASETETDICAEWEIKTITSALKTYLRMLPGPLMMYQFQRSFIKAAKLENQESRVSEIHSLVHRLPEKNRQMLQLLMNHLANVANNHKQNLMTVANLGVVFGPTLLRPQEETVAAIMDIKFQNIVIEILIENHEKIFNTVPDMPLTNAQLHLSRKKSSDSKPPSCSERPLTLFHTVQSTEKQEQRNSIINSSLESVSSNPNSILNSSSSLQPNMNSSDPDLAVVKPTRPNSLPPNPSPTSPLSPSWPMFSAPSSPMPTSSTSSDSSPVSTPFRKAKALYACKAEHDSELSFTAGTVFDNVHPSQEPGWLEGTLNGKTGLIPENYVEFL
The description is as above.

In another experiment the target is T5, GFP-VAPA ΔMSP (human) (UniProt Q9P0L0).
T5 sequence: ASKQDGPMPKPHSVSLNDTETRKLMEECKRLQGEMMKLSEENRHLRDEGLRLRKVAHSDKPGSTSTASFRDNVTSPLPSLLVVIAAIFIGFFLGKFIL
Described as above.

In another experiment the target is GFP-VAPB (human) (UniProt O95292). The experiment is described as above.
In another experiment the target is T6, GST–MICAL1 ΔN (human) (UniProt Q8TDZ2).
T6 sequence: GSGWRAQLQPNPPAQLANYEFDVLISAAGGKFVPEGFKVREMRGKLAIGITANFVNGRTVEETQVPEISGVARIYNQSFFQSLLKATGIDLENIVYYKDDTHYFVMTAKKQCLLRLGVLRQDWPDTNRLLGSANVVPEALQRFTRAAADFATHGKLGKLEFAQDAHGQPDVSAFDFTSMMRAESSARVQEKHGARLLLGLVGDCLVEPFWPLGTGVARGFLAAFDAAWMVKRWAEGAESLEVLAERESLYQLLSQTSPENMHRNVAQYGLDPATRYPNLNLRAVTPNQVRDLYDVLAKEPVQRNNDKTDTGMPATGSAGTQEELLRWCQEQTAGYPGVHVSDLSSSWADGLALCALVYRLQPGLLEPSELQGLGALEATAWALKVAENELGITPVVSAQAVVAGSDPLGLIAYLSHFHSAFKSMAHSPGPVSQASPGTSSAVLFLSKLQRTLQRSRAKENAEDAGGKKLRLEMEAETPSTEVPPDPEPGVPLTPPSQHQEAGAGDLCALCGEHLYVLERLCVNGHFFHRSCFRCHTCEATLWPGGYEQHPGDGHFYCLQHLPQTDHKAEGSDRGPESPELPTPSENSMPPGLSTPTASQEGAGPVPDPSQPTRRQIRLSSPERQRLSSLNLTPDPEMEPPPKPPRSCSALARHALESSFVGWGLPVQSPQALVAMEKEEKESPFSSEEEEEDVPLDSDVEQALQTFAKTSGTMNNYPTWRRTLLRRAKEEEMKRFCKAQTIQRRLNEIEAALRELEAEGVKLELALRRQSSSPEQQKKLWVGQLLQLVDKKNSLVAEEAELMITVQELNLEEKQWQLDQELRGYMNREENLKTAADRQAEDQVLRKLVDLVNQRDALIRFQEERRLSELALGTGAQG
Description: pull-down; in vitro: GST-tagged WDR44 or MICAL1 domains on glutathione sepharose beads with an equal amount of Thrombin-released GRAF2 SH3, 30 min 4°C, washed in bacterial lysis buffer (20 mM Hepes pH 7.4, 1 mM DTT, NaCl); Coomassie staining; both purified.

B1: myc-WDR44 (protein, UniProt Q5JSH3 1-913)
chain: MASESDTEEFYDAPEDVHLGGGYPVGSPGKVGLSTFKETENTAYKVGNESPVQELKQDVSKKIIESIIEESQKVLQLEDDSLDSKGKELSDQATASPIVARTDLSNIPGLLAIDQVLPEESQKAESQNTFEETELELKKCFPSDETCEKPVDETTKLTQTSSTEQLNVLETETEVLNKEAVEVKGGGDVLEPVSSDSLSTKDFAAVEEVAPAKPPRHLTPEPDIVASTKKPVPARPPPPTNFPPPRPPPPSRPAPPPRKRKSELEFETLKTPDIDVPKENITSDSLLTASMASESTVKDSQPSLDLASATSGDKIVTAQENGKAPDGQTVAGEVMGPQRPRSNSGRELTDEEILASVMIKNLDTGEEIPLSLAEEKLPTGINPLTLHIMRRTKEYVSNDAAQSDDEEKLQSQPTDTDGGRLKQKTTQLKKFLGKSVKRAKHLAEEYGERAINKVKSVRDEVFHTDQDDPSSSDDEGMPYTRPVKFKAAHGFKGPYDFDQIKVVQDLSGEHMGAVWTMKFSHCGRLLASAGQDNVVRIWALKNAFDYFNNMRMKYNTEGRVSPSPSQESLSSSKSDTDTGVCSGTDEDPDDKNAPFRQRPFCKYKGHTADLLDLSWSKNYFLLSSSMDKTVRLWHISRRECLCCFQHIDFVTAIAFHPRDDRYFLSGSLDGKLRLWNIPDKKVALWNEVDGQTKLITAANFCQNGKYAVIGTYDGRCIFYDTEHLKYHTQIHVRSTRGRNKVGRKITGIEPLPGENKILVTSNDSRIRLYDLRDLSLSMKYKGYVNSSSQIKASFSHDFTYLVSGSEDKYVYIWSTYHDLSKFTSVRRDRNDFWEGIKAHNAVVTSAIFAPNPSLMLSLDVQSEKSEGNEKSEDAEVLDATPSGIMKTDNTEVLLSADFTGAIKVFVNKRKNVS
Consider B1, for which the binding result is reported as “binds” with GFP-Rab11a Q70L (human); “no binding” with GFP-Rab10 (human); “no binding” with GFP-Rab8b (human); “binds” with GFP-Rab11a (human); “no binding” in the experiment with GFP-VAPA DD (human); “binds” with GFP-VAPA (human). The binding result in the experiment with GFP-Rab8a (canine) is reported as “no binding”; in the experiment with GRAF2-GFP (human) it was “binds”; in the experiment with GFP-Rab11a S25N (human) it was “no binding”; with GRAF1b-GFP (human) it was “binds”; in the experiment with GFP-VAPA ΔMSP (human), “no binding”; with GFP-VAPB (human), “binds”.

B2: GRAF2 SH3 (released from GST by Thrombin) (domain or fragment, human, UniProt A1A4S6 718-786, looked up)
chain: ATVADKPPESIRSRKARAVYPCEAEHSSELSFEIGAIFEDVQTSREPGWLEGTLNGKRGLIPQNYVKLL
notes: SH3 domain construct, aa 718–786 of human GRAF2; same construct as m2 with GST cut off; source: E. coli BL21(DE3) pLysS; released from GST-GRAF2 SH3 beads with Thrombin; not shown: GST, N-terminal, cleaved
Take B2: in the experiment with GST–MICAL1 ΔN (human), the binding result is “no binding”.
